Results from patent US20230355549A1, “METHOD OF PREVENTING KIDNEY INJURY DISRUPTION OF INTESTINAL LYMPHATICS” (Vanderbilt University, priority 2020, published 2023).

Tested on: Sprague Dawley rats
Assay type: in vivo, rat
Procedure: Adult male Sprague Dawley rats (200-225 g, Charles River) were housed under a 12-h light/dark cycle with free access to normal rat chow and water. Kidney injury was induced by a single injection of puromycin […] (PAN) (125 mg/kg body weight, i.p.) while saline-injected rats served as controls (Cont). Eight days after injection, rats were sacrificed and blood, urine, and tissues were harvested. We also studied adult male (12 weeks old) Nphs1-hCD25 transgenic (NEP25, C57 bl/6 background) mice expressing human CD25 on podocytes can be selectively injured by injection of recombinant immunotoxin, anti-Tac (Fv)-PE38 (LMB2, 1 ng/g BW, i.v. generously provided by Dr. Ira Pastan) that results in proteinuria. These and wild type control mice were housed under normal conditions with free access to regular rodent chow and water. Two weeks after LMB2, mice were sacrificed and blood, urine and tissues harvested. All animal procedures were approved by the Institutional Animal Care and Use Committee at Vanderbilt University.
Mesenteric lymph was collected in a subset of conscious rats following cannulation of the mesenteric lymph duct. The rats were placed in Bollman cages in a temperature- and humidity-controlled incubator and lymph collected hourly for at least 3 h.
Albumin (Exocell), apoAI (Mybiosource), sphingosine-1 phosphate (S1P) (Mybiosource) and VEGF-C levels (Mybiosource) were measured by ELISA. Albuminuria was measured as urine albumin-to-creatinine ratio (ACR) (Nephrat II, Exocell) and QuantiChrom™ Creatinine Assay Kit (Bioassay Systems), respectively. Plasma and lymph total cholesterol and triglycerides were measured enzymatically (Cliniqa). HDL and LDL fractions were isolated from plasma and lymph by density-gradient ultracentrifugation after adjustment with potassium bromide. Lipoprotein particle size was evaluated by NMR methodology (Liposcience). Colorimetric assays were used to measure protein (BCA, ThermoFisher). Lipoproteins in plasma and lymph were separated by size-exclusion chromatography (SEC) using an Akta Pure fast-protein liquid chromatography (FPLC) system (GE Healthcare). Total IsoLG-protein adduct by LC/MS was measured as IsoLG-lysine after complete proteolytic digestion of lymph samples.

[1] = PAN rats, not significant vs Cont

CN(C)c1ncnc2c1ncn2[C@@H]1O[C@H](CO)[C@@H](N)[C@H]1O [PAN, puromycin aminoglycoside]
IsoLG-lysine level in plasma [1]: 0.20±0.07 pmol/mg protein | plasma HDL particle size [1]: 10.7±0.1 nm | plasma VEGF-C [1]: 11.03 ± 0.76 pg/mL | increase in intestinal lymph flow rate (PAN-treated rats vs controls): > 5 fold
